Results are given in words; binding and its absence hold for the method and conditions named. Binding seen in cells or lysates may run through a third protein. Some binding calls cover weakened binding; strength is not graded here.
Legend:
[1] = target: T1, perilipin (human (endogenous in human preadipose cells)) (UniProt O60240); assay: co-IP; "OA Adipocytes" (AIM-stimulated and OA-treated preadipocytes); IP with perilipin antibodies, Western blotting; not shown
T1 sequence: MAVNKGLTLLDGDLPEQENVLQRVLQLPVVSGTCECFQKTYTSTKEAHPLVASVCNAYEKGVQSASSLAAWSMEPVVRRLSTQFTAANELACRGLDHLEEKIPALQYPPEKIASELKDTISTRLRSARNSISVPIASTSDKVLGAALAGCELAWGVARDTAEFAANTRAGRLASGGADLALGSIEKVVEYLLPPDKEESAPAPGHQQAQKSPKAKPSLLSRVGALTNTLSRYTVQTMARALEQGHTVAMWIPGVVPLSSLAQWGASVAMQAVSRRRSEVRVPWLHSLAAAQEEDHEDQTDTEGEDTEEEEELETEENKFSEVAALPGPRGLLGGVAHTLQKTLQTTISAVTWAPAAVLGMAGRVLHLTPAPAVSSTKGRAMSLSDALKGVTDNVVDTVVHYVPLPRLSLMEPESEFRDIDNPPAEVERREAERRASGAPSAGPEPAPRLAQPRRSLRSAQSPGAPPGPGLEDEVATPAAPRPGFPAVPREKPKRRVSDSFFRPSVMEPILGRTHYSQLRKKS

By UniProt entry, the sequences of proteins in these tests, tags left out.
UniProt P08670: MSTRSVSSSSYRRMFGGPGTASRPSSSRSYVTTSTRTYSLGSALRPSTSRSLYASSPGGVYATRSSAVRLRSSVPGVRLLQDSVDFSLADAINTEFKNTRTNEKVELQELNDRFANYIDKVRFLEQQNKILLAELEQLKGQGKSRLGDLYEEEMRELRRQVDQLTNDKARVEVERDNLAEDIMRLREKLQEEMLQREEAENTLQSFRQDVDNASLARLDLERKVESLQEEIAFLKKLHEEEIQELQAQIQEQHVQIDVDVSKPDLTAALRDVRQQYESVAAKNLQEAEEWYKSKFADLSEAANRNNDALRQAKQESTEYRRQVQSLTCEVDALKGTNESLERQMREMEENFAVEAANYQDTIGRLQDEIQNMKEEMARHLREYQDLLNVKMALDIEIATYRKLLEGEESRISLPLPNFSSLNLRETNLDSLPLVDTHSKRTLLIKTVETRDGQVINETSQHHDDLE

[2] = target: vimentin (human (endogenous in human preadipose cells)) (UniProt P08670); assay: cross-linking + co-IP; lysate supernatant cross-linked with 0.2 mM BM(PEG)2, 30 min, room temperature, before methanol precipitation and IP with mabs Peri112.17 or Vim3B4; Western blot with pab Peri-hNT
[3] = target: vimentin (human (endogenous in human preadipose cells)) (UniProt P08670); assay: co-IP; mabs Vim3B4 or Peri112.17 on protein G- or protein A-coated magnetic beads; lysate of briefly AIM-stimulated human preadipocytes (nitrogen cavitation, methanol-precipitated, dissolved in RIPA buffer); Western blot with pab Peri-hNT; control mab VE-cadherin

Molecule: vimentin (from UniProt P08670 1-466)
- binding [1]: binds

B1: perilipin (protein, UniProt O60240 1-522)
chain: MAVNKGLTLLDGDLPEQENVLQRVLQLPVVSGTCECFQKTYTSTKEAHPLVASVCNAYEKGVQSASSLAAWSMEPVVRRLSTQFTAANELACRGLDHLEEKIPALQYPPEKIASELKDTISTRLRSARNSISVPIASTSDKVLGAALAGCELAWGVARDTAEFAANTRAGRLASGGADLALGSIEKVVEYLLPPDKEESAPAPGHQQAQKSPKAKPSLLSRVGALTNTLSRYTVQTMARALEQGHTVAMWIPGVVPLSSLAQWGASVAMQAVSRRRSEVRVPWLHSLAAAQEEDHEDQTDTEGEDTEEEEELETEENKFSEVAALPGPRGLLGGVAHTLQKTLQTTISAVTWAPAAVLGMAGRVLHLTPAPAVSSTKGRAMSLSDALKGVTDNVVDTVVHYVPLPRLSLMEPESEFRDIDNPPAEVERREAERRASGAPSAGPEPAPRLAQPRRSLRSAQSPGAPPGPGLEDEVATPAAPRPGFPAVPREKPKRRVSDSFFRPSVMEPILGRTHYSQLRKKS
- binding [2]: binds
- binding [3]: binds

B2: TIP47 (protein, UniProt O60664 1-434)
chain: MSADGAEADGSTQVTVEEPVQQPSVVDRVASMPLISSTCDMVSAAYASTKESYPHIKTVCDAAEKGVRTLTAAAVSGAQPILSKLEPQIASASEYAHRGLDKLEENLPILQQPTEKVLADTKELVSSKVSGAQEMVSSAKDTVATQLSEAVDATRGAVQSGVDKTKSVVTGGVQSVMGSRLGQMVLSGVDTVLGKSEEWADNHLPLTDAELARIATSLDGFDVASVQQQRQEQSYFVRLGSLSERLRQHAYEHSLGKLRATKQRAQEALLQLSQVLSLMETVKQGVDQKLVEGQEKLHQMWLSWNQKQLQGPEKEPPKPEQVESRALTMFRDIAQQLQATCTSLGSSIQGLPTNVKDQVQQARRQVEDLQATFSSIHSFQDLSSSILAQSRERVASAREALDHMVEYVAQNTPVTWLVGPFAPGITEKAPEEKK
- binding [1]: binds

From PMC3938729
